Test results taken from US20260266848A1, “COMPOSITIONS AND METHODS FOR DIAGNOSING AND TREATING DYSTONIA” (Duke University, priority 2023, published 2026).

B1: GALNTL6 (protein, UniProt Q49A17 1-601, looked up)
Polypeptide …: MKRKQKRFLQMTLLFTVALIFLPNVGLWSLYKDKHLVKSAEPGEQQTFPLGLGDGQFYSWTDGLRRKDWHDYESIQKEAMRSGKGEHGKPYPLTEEDHDDSAYRENGFNIFVSNNIALERSLPDIRHANCKHKMYLERLPNTSIIIPFHNEGWTSLLRTIHSIINRTPGSLIAEIILVDDFSEREHLKDKLEEYMARFSKVRIVRTKKREGLIRTRLLGASMARGEVLTFLDSHCEVNVNWLPPLLNQIALNHKTIVCPMIDVIDHNHFGYEAQAGDAMRGAFDWEMYYKRIPIPPELQRADPSDPFESPVMAGGLFAVDRKWFWELGGYDPGLEIWGGEQYEISFKVWMCGGEMFDVPCSRVGHIYRKYVPYKVPSGTSLARNLKRVAETWMDEFAEYIYQRRPEYRHLSTGDISAQKELRKQLKCKDFKWFMAAVAWDVPKYYPPVEPPPAAWGEIRNVAANLCVDSKHGATGTELRLDICVKDGSERTWSHEQLFTFGWREDIRPGEPLHTRKFCFDAISHNSPVTLYDCHGMKGNQLWGYRKDRTLFHPVSNSCMDCNPAEKKIFMARCDPLSETQQWIFEHINMTVLEKFNHHANS
B2: PSMD12 (protein, UniProt O00232 2-456, looked up)
26S proteasome non-ATPase …: ADGGSERADGRIVKMEVDYSATVDQRLPECAKLAKEGRLQEVIETLLSLEKQTRTASDMVSTSRILVAVVKMCYEAKEWDLLNENIMLLSKRRSQLKQAVAKMVQQCCTYVEEITDLPIKLRLIDTLRMVTEGKIYVEIERARLTKTLATIKEQNGDVKEAASILQELQVETYGSMEKKERVEFILEQMRLCLAVKDYIRTQIISKKINTKFFQEENTEKLKLKYYNLMIQLDQHEGSYLSICKHYRAIYDTPCIQAESEKWQQALKSVVLYVILAPFDNEQSDLVHRISGDKKLEEIPKYKDLLKLFTTMELMRWSTLVEDYGMELRKGSLESPATDVFGSTEEGEKRWKDLKNRVVEHNIRIMAKYYTRITMKRMAQLLDLSVDESEAFLSNLVVNKTIFAKVDRLAGIINFQRPKDPNNLLNDWSQKLNSLMSLVNKTTHLIAKEEMIHNLQ
B3: ACAA1 (protein, UniProt P09110 27-424, looked up)
3-ketoacyl-CoA thiolase, …: LSGAPQASAADVVVVHGRRTAICRAGRGGFKDTTPDELLSAVMTAVLKDVNLRPEQLGDICVGNVLQPGAGAIMARIAQFLSDIPETVPLSTVNRQCSSGLQAVASIAGGIRNGSYDIGMACGVESMSLADRGNPGNITSRLMEKEKARDCLIPMGITSENVAERFGISREKQDTFALASQQKAARAQSKGCFQAEIVPVTTTVHDDKGTKRSITVTQDEGIRPSTTMEGLAKLKPAFKKDGSTTAGNSSQVSDGAAAILLARRSKAEELGLPILGVLRSYAVVGVPPDIMGIGPAYAIPVALQKAGLTVSDVDIFEINEAFASQAAYCVEKLRLPPEKVNPLGGAVALGHPLGCTGARQVITLLNELKRRGKRAYGVVSMCIGTGMGAAAVFEYPGN
B4: MRC2 (protein, UniProt Q9UBG0 31-1479, looked up)
C-type mannose receptor 2: GAPGDAALPEPNVFLIFSHGLQGCLEAQGGQVRVTPACNTSLPAQRWKWVSRNRLFNLGTMQCLGTGWPGTNTTASLGMYECDREALNLRWHCRTLGDQLSLLLGARTSNISKPGTLERGDQTRSGQWRIYGSEEDLCALPYHEVYTIQGNSHGKPCTIPFKYDNQWFHGCTSTGREDGHLWCATTQDYGKDERWGFCPIKSNDCETFWDKDQLTDSCYQFNFQSTLSWREAWASCEQQGADLLSITEIHEQTYINGLLTGYSSTLWIGLNDLDTSGGWQWSDNSPLKYLNWESDQPDNPSEENCGVIRTESSGGWQNRDCSIALPYVCKKKPNATAEPTPPDRWANVKVECEPSWQPFQGHCYRLQAEKRSWQESKKACLRGGGDLVSIHSMAELEFITKQIKQEVEELWIGLNDLKLQMNFEWSDGSLVSFTHWHPFEPNNFRDSLEDCVTIWGPEGRWNDSPCNQSLPSICKKAGQLSQGAAEEDHGCRKGWTWHSPSCYWLGEDQVTYSEARRLCTDHGSQLVTITNRFEQAFVSSLIYNWEGEYFWTALQDLNSTGSFFWLSGDEVMYTHWNRDQPGYSRGGCVALATGSAMGLWEVKNCTSFRARYICRQSLGTPVTPELPGPDPTPSLTGSCPQGWASDTKLRYCYKVFSSERLQDKKSWVQAQGACQELGAQLLSLASYEEEHFVANMLNKIFGESEPEIHEQHWFWIGLNRRDPRGGQSWRWSDGVGFSYHNFDRSRHDDDDIRGCAVLDLASLQWVAMQCDTQLDWICKIPRGTDVREPDDSPQGRREWLRFQEAEYKFFEHHSTWAQAQRICTWFQAELTSVHSQAELDFLSHNLQKFSRAQEQHWWIGLHTSESDGRFRWTDGSIINFISWAPGKPRPVGKDKKCVYMTASREDWGDQRCLTALPYICKRSNVTKETQPPDLPTTALGGCPSDWIQFLNKCFQVQGQEPQSRVKWSEAQFSCEQQEAQLVTITNPLEQAFITASLPNVTFDLWIGLHASQRDFQWVEQEPLMYANWAPGEPSGPSPAPSGNKPTSCAVVLHSPSAHFTGRWDDRSCTEETHGFICQKGTDPSLSPSPAALPPAPGTELSYLNGTFRLLQKPLRWHDALLLCESRNASLAYVPDPYTQAFLTQAARGLRTPLWIGLAGEEGSRRYSWVSEEPLNYVGWQDGEPQQPGGCTYVDVDGAWRTTSCDTKLQGAVCGVSSGPPPPRRISYHGSCPQGLADSAWIPFREHCYSFHMELLLGHKEARQRCQRAGGAVLSILDEMENVFVWEHLQSYEGQSRGAWLGMNFNPKGGTLVWQDNTAVNYSNWGPPGLGPSMLSHNSCYWIQSNSGLWRPGACTNITMGVVCKLPRAEQSSFSPSALPENPAALVVVLMAVLLLLALLTAALILYRRRQSIERGAFEGARYSRSSSSPTEATEKNILVSDMEMNEQQE
B5: FAM177A1 (protein, UniProt Q8N128 1-213, looked up)
Protein FAM177A1: MDQEPVGGVERGEAVAASGAAAAAAFGESAGQMSNERGFENVELGVIGKKKKVPRRVIHFVSGETMEEYSTDEDEVDGLEKKDVLPTVDPTKLTWGPYLWFYMLRAATSTLSVCDFLGEKIASVLGISTPKYQYAIDEYYRMKKEEEEEEEENRMSEEAEKQYQQNKLQTDSIVQTDQPETVISSSFVNVNFEMEGDSEVIMESKQNPVSVPP
B6: PTGDR2 (protein, UniProt Q9Y5Y4 1-395, looked up)
Prostaglandin D2 receptor 2: MSANATLKPLCPILEQMSRLQSHSNTSIRYIDHAAVLLHGLASLLGLVENGVILFVVGCRMRQTVVTTWVLHLALSDLLASASLPFFTYFLAVGHSWELGTTFCKLHSSIFFLNMFASGFLLSAISLDRCLQVVRPVWAQNHRTVAAAHKVCLVLWALAVLNTVPYFVFRDTISRLDGRIMCYYNVLLLNPGPDRDATCNSRQVALAVSKFLLAFLVPLAIIASSHAAVSLRLQHRGRRRPGRFVRLVAAVVAAFALCWGPYHVFSLLEARAHANPGLRPLVWRGLPFVTSLAFFNSVANPVLYVLTCPDMLRKLRRSLRTVLESVLVDDSELGGAGSSRRRRTSSTARSASPLALCSRPEEPRGPARLLGWLLGSCAASPQTGPLNRALSSTSS
B7: PAFAH1B2 (protein, UniProt P68402 2-229, looked up)
Platelet-activating factor …: SQGDSNPAAIPHAAEDIQGDDRWMSQHNRFVLDCKDKEPDVLFVGDSMVQLMQQYEIWRELFSPLHALNFGIGGDTTRHVLWRLKNGELENIKPKVIVVWVGTNNHENTAEEVAGGIEAIVQLINTRQPQAKIIVLGLLPRGEKPNPLRQKNAKVNQLLKVSLPKLANVQLLDTDGGFVHSDGAISCHDMFDFLHLTGGGYAKICKPLHELIMQLLEETPEEKQTTIA
B8: SLC25A6 (protein, UniProt P12236 1-298, looked up)
ADP/ATP translocase 3: MTEQAISFAKDFLAGGIAAAISKTAVAPIERVKLLLQVQHASKQIAADKQYKGIVDCIVRIPKEQGVLSFWRGNLANVIRYFPTQALNFAFKDKYKQIFLGGVDKHTQFWRYFAGNLASGGAAGATSLCFVYPLDFARTRLAADVGKSGTEREFRGLGDCLVKITKSDGIRGLYQGFSVSVQGIIIYRAAYFGVYDTAKGMLPDPKNTHIVVSWMIAQTVTAVAGVVSYPFDTVRRRMMMQSGRKGADIMYTGTVDCWRKIFRDEGGKAFFKGAWSNVLRGMGGAFVLVLYDELKKVI
B9: ATP5F1C (protein, UniProt P36542 26-298, looked up)
ATP synthase F(1) complex …: ATLKDITRRLKSIKNIQKITKSMKMVAAAKYARAERELKPARIYGLGSLALYEKADIKGPEDKKKHLLIGVSSDRGLCGAIHSSIAKQMKSEVATLTAAGKEVMLVGIGDKIRGILYRTHSDQFLVAFKEVGRKPPTFGDASVIALELLNSGYEFDEGSIIFNKFRSVISYKTEEKPIFSLNTVASADSMSIYDDIDADVLQNYQEYNLANIIYYSLKESTTSEQSARMTAMDNASKNASEMIDKLTLTFNRTRQAVITKELIEIISGAAALD
B10: TUBA1C (protein, UniProt Q9BQE3 1-449, looked up)
Tubulin alpha-1C chain: MRECISIHVGQAGVQIGNACWELYCLEHGIQPDGQMPSDKTIGGGDDSFNTFFSETGAGKHVPRAVFVDLEPTVIDEVRTGTYRQLFHPEQLITGKEDAANNYARGHYTIGKEIIDLVLDRIRKLADQCTGLQGFLVFHSFGGGTGSGFTSLLMERLSVDYGKKSKLEFSIYPAPQVSTAVVEPYNSILTTHTTLEHSDCAFMVDNEAIYDICRRNLDIERPTYTNLNRLISQIVSSITASLRFDGALNVDLTEFQTNLVPYPRIHFPLATYAPVISAEKAYHEQLTVAEITNACFEPANQMVKCDPRHGKYMACCLLYRGDVVPKDVNAAIATIKTKRTIQFVDWCPTGFKVGINYQPPTVVPGGDLAKVQRAVCMLSNTTAVAEAWARLDHKFDLMYAKRAFVHWYVGEGMEEGEFSEAREDMAALEKDYEEVGADSADGEDEGEEY

The molecules below were run on DYT1 patient plasma derived EVs (assay: Plasma-derived EV proteomics (ExoQuick ULTRA, DIA LC/MS/MS), DYT1 vs Healthy Controls). Settings: DYT1 patients as compared to healthy controls.
Parameters: species or system human
Experimental: Data was obtained for extracellular vesicles using previously acquired samples. The ExoQuick® ULTRA EV Isolation System was used to fractionate and enrich EVs from plasma. Isolated plasma EV samples were then submitted to proteomic analysis by the Duke Proteomics and Metabolomics Core Facility (DPMCF). At the DPMCF, quantitative (LC/MS/MS) was performed on 500 ng of each sample, using an EvoSep One UPLC system coupled to a Thermo Orbitrap Astral high-resolution accurate mass tandem mass spectrometer (Thermo). Briefly, the sample was eluted directly from an Evotip which was subjected to a low organic wash and then subjected to an analytical separation using a 1.7 μm EvoSep 150 um ID×15 cm endurance (EveoSep) column running an SPD30 gradient from approximately 5 to 30% acetonitrile with 0.1% formic acid with a column temperature of 50 C. Data collection on the Orbitrap Astral mass spectrometer was performed in a data-independent acquisition (DIA) mode of acquisition with a r=240,000 (@m/z 200) full MS scan from m/z 380-980 with a target AGC value of 4e5 ions. Fixed DIA, windows of 4 m/z from m/z 380 to 980 DIA MS/MS scans were acquired in the Astral with a target AGC value of 5e4 and a max fill time of 6 ms. HCD collision energy setting of 27% was used for all MS2 scans.
For B1, the Log2FC was −2.1098.

Same assay, conditions: Hs. Plasma EVs (DYT1/WT)
In the case of B2, the Directionality is reported as “DOWN”.
In the case of B3, the Directionality is reported as “DOWN”.

Same assay, conditions: Hs. Plasma EVs (DYT1/WT); protein level, human patient derived EVs by genotype
Work on B2 yielded a Log2_FC of -1.06.
In the case of B4, the Log2_FC is reported as 1.078.
For B3, the Log2_FC was -0.8622.

Same assay, conditions: directionality of protein change, human plasma derived EVs, DYT1 vs WT(HC)
For B2, the “Hs. Plasma EVs (DYT1/WT)” value was “DOWN”.
In the case of B3, the “Hs. Plasma EVs (DYT1/WT)” value is reported as “DOWN”.

Same assay, conditions: protein abundance, DYT1 patients
For B2, the “Mean DYT1” value was 4.269.
In the case of B4, the “Mean DYT1” value is reported as 5.949.
With B5 the “Mean DYT1” value was 5.304.
With B3 the “Mean DYT1” value was 3.044.
In the case of B6, the “Mean DYT1” value is reported as 12.868.
For B7, the “Mean DYT1” value was 4.198.
In the case of B1, the “Mean DYT1” value is reported as 5.463.
With B8 the “Mean DYT1” value was 4.947.
B9 was tested, and the “Mean DYT1” value was 7.830.
For B10, the “Mean DYT1” value was 6.242.

Same assay, conditions: protein abundance, healthy controls (HC)
For B2, the “Mean HC” value was 5.33.
For B4, the “Mean HC” value was 4.87.
B5 was tested, and the “Mean HC” value was 4.10.
With B3 the “Mean HC” value was 3.91.
With B6 the “Mean HC” value was 14.27.
In the case of B7, the “Mean HC” value is reported as 3.22.
With B1 the “Mean HC” value was 7.57.
For B8, the “Mean HC” value was 4.05.
With B9 the “Mean HC” value was 8.69.
B10 was tested, and the “Mean HC” value was 7.71.
